This note sets out measurements from patent US20110064746A1 (published 2011).

Chains of the proteins cited; added tags and fusions are not shown. Residues count along the entry.
UniProt P63158: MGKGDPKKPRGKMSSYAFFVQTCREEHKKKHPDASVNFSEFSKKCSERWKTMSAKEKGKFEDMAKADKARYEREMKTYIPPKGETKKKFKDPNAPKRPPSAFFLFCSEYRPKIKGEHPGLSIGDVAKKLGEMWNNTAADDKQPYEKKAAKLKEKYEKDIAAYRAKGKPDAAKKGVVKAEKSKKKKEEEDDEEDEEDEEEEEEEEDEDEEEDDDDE
UniProt P09429: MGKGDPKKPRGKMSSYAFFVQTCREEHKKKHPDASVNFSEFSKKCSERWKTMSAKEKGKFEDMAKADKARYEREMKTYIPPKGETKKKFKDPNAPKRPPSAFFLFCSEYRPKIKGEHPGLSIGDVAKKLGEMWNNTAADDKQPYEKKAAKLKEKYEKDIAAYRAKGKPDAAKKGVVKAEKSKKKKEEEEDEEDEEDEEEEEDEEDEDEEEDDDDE
UniProt P24807, residues 27-53: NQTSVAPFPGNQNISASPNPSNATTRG

The target of assay [1] is mouse HMGB1 (mouse) (UniProt P63158). The assay is described as follows: co-immunoprecipitation and reciprocal immunoprecipitation from WT splenocyte lysates.
For assay [2] the target is unchanged. The assay is described as follows: co-immunoprecipitation from mouse splenocyte lysates, Western blot; eluted by EDTA. Background: In western blotting, separated proteins are transferred to a membrane and probed.
The target of assay [3] is FLAG-tagged full-length human HMGB1 (F) (human) (UniProt P09429). Briefly: precipitation of COS7 lysates with CD24Fc, anti-FLAG blot.
The next assay has as its target T1, Siglec-G (mouse) (UniProt Q80ZE3).
T1 sequence (looked up): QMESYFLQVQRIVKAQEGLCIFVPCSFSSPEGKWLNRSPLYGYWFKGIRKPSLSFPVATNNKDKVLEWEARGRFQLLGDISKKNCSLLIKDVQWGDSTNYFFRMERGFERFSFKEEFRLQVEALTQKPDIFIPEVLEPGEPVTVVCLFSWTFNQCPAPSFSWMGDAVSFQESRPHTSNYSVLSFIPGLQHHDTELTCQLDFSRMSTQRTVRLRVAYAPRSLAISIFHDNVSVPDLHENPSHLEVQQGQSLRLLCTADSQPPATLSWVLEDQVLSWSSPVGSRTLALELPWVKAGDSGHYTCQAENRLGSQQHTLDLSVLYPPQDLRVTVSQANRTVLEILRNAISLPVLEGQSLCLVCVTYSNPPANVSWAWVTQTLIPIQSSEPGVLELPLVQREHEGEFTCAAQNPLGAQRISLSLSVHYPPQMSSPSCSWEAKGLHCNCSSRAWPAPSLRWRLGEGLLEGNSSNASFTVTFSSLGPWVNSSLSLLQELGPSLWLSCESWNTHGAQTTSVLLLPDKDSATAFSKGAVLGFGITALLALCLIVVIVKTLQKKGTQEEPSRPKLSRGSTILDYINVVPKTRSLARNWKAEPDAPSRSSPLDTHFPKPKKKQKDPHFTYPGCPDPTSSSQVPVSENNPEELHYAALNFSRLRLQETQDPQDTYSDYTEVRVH
Briefly: flow cytometry with biotinylated CD24-Fc on WT and Siglecg-/- splenocytes. A general note: In flow cytometry, cells or beads pass a laser one at a time.

For assay [4], the target named is mouse CD24 (mouse) (UniProt P24807). The assay is described as follows: flow cytometry on WT and CD24-/- splenocytes.
Assay [5] shares this target. The assay is described as follows: flow cytometry of Siglec 10Fc on spleen cells of sham-surgery and CLP mice.
For assay [6] the target is unchanged. Briefly: splenocytes incubated on plates coated with Siglec-Fc, optical density.
For assay [7] the target is unchanged. The assay is described as follows: immunoprecipitation of spleen cell lysates with anti-Siglec-G antisera, Western blot.

These are yes or no findings as the source states them, for the method shown. For some assays here: In cells and extracts the contact can be indirect. Some binding calls cover weakened binding; strength is not graded here. For some assays here: Sequences can lack the tags named with a protein.

Consider “mouse CD24 (from UniProt P24807 27-53) (receptor)”, for which the binding entry in the assay with mouse HMGB1 (mouse) [1] and in the assay with mouse HMGB1 (mouse) [2] was “binds” each time.
With SETTTGTSSNSSQSTSNSGLAPNPTNATTK (Fc fusion, human, UniProt P25063 27-56, looked up, not shown: a dimerising Fc or GST, sialylated glycans; biotinylated in some assays) [CD24-Fc fusion protein], the binding result (in assay [3]; with Siglec-G (mouse)) was “binds” throughout.

B1: Siglec-10-Fc (Fc fusion, human, UniProt Q96LC7 17-550, looked up, not shown: a dimerising Fc or GST)
chain: MDGRFWIRVQESVMVPEGLCISVPCSFSYPRQDWTGSTPAYGYWFKAVTETTKGAPVATNHQSREVEMSTRGRFQLTGDPAKGNCSLVIRDAQMQDESQYFFRVERGSYVRYNFMNDGFFLKVTALTQKPDVYIPETLEPGQPVTVICVFNWAFEECPPPSFSWTGAALSSQGTKPTTSHFSVLSFTPRPQDHNTDLTCHVDFSRKGVSAQRTVRLRVAYAPRDLVISISRDNTPALEPQPQGNVPYLEAQKGQFLRLLCAADSQPPATLSWVLQNRVLSSSHPWGPRPLGLELPGVKAGDSGRYTCRAENRLGSQQRALDLSVQYPPENLRVMVSQANRTVLENLGNGTSLPVLEGQSLCLVCVTHSSPPARLSWTQRGQVLSPSQPSDPGVLELPRVQVEHEGEFTCHARHPLGSQHVSLSLSVHYSPKLLGPSCSWEAEGLHCSCSSQASPAPSLRWWLGEELLEGNSSQDSFEVTPSSAGPWANSSLSLHGGLSSGLRLRCEAWNVHGAQSGSILQLPDKKGLISTAFSN
As for B1, the binding result with mouse CD24 (mouse) [4], with mouse CD24 (mouse) [5] and with mouse CD24 (mouse) [6] was “binds” in each case.

B2: Siglec-G (receptor, mouse, UniProt Q80ZE3 18-688, looked up)
chain: T1 sequence (looked up)
For B2, in the assay with mouse CD24 (mouse) [7], the binding entry is listed as “binds”.
